In paper PMC7382467:
For at least one entry, the source does not settle the construct or the ends of the probe.

System: CMG helicase (Cdc45/Mcm2-7/GINS), unlabelled (Drosophila melanogaster)
Assay: competition (read out by fork unwinding)
Settings: excess dT40 prevents CMG binding to ForkdsLag and unwinding; CMG-binding buffer: 25 mM HEPES pH 7.5, 5 mM NaCl, 10 mM Mg acetate, 5 mM DTT, 0.1 mg/ml BSA (0.8 mg/ml casein in single-molecule work); ATPgS 0.1-0.3 mM for loading; recombinant protein; protein details: Flag on Mcm3; single-stranded DNA

## TTTTTTTTTTTTTTTTTTTTTTTTTTTTTTTTTTTTTTTT [dT40 (Oligo-6)]
  binding result: binds
